In PMC7819943, “Rice protein-binding microarrays: a tool to detect cis-acting elements near promoter regions in rice”:
The other results are listed elsewhere or left out.

By UniProt entry, the sequences of proteins in these tests, tags left out.
UniProt Q0JBA9, entry or part of it: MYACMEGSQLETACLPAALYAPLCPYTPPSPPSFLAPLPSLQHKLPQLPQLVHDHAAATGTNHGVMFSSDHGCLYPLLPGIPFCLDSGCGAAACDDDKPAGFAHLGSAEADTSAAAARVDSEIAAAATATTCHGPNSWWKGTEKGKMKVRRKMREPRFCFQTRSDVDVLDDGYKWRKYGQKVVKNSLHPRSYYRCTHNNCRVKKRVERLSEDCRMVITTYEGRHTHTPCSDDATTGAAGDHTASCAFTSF

Molecular target: OsWRKY34 (Oryza sativa, UniProt Q0JBA9 1-250)
Test: protein-binding microarray (RPBM); PBS, 2% BSA, 51.3 ng/ul salmon testes DNA, 50 uM zinc acetate, 200 nM TF, 25 C, 1 h; high values mean tight binding
Conditions: protein: recombinant; tags: N-terminal polyhistidine and DsRed monomer fusion (pET32a); label: CyDye5-dUTP incorporated in the synthesized complementary strand; 3' TTTTT single-stranded linker to array surface; dsDNA, one strand shown
Method in brief: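 For the binding signal, per-feature fluorescence intensity was read in arbitrary units on an Axon 4000B scanner. Before scanning, a 2% BSA-blocked custom Agilent array made double-stranded with Cy5-dUTP was washed after 1 h at 25 °C with 200 nM protein and 50 µM zinc acetate. The proteins were Ni–NTA-purified transcription factors with N-terminal polyhistidine and DsRed fusions, expressed in E. coli BL21-CodonPlus.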

Sequence | binding signal
GATTCCTTTCTGGACTATCTTTGTTTCTTATAGAGGACATCGGAGTCACCTAGTGCAG | 9560 fluorescence intensity (a.u.)
TTTTGGTACGTTATTAGTGTGTGTATCAGTTTTTAAGTTCCGGAGTCACCTAGTGCAG | 9430 fluorescence intensity (a.u.)
AGGCCTGTGTTGCCGATCTGTTGCCTGTTGTGTAAATTTTCGGAGTCACCTAGTGCAG | 8710 fluorescence intensity (a.u.)
CCTGTTCCTGTGGCTATGTCTCATTTGGTTACGTTCAAGCCGGAGTCACCTAGTGCAG | 9940 fluorescence intensity (a.u.)
TGCAGCTGAACCAGTCAACATCTCTGCACGCTGCATTCCACGGAGTCACCTAGTGCAG | 8860 fluorescence intensity (a.u.)
TATATATATTTATCACCGGTTTATTTTGGTCTGGTCTTTTCGGAGTCACCTAGTGCAG | 13000 fluorescence intensity (a.u.)
GGTTTTTCAGCTTCTATGTTCTCGTTCATTTTCTGAATTCCGGAGTCACCTAGTGCAG | 13000 fluorescence intensity (a.u.)
GTTATGGTCCGTTTGCAAAAATTATGAGGGTCTCGTACACCGGAGTCACCTAGTGCAG | 10300 fluorescence intensity (a.u.)
CACGCACGCCTCGCCACCCCTGCCTTTTTTTACATGACGACGGAGTCACCTAGTGCAG | 11400 fluorescence intensity (a.u.)
TTTTTTTCTCTTTCTTTTTTCTTTTCTTCGTTTTCTTTCACGGAGTCACCTAGTGCAG | 9230 fluorescence intensity (a.u.)
CCTACTCAGTGTTCACGGATAACCCGGTCTGACTTTTCATCGGAGTCACCTAGTGCAG | 8110 fluorescence intensity (a.u.)
CTCTTCTCTTGGTTTGGGGTGTCACGACTCACGACCTGCCCGGAGTCACCTAGTGCAG | 8460 fluorescence intensity (a.u.)
TGCAATGTCTCCATTCCTTTTCATGTCTCACTGCAATTTGCGGAGTCACCTAGTGCAG | 9400 fluorescence intensity (a.u.)
CTCTATGCATGTGCCCAAAGATTCGATGTAATGTTTTTTCCGGAGTCACCTAGTGCAG | 8570 fluorescence intensity (a.u.)
CTTCCACCGCATCGTCGCTCGCCGGTGAGCATCCCTCCCTCGGAGTCACCTAGTGCAG | 9620 fluorescence intensity (a.u.)
CATCCTTTGATGGTGTTGATTCCGATTTTATCCTACGTGACGGAGTCACCTAGTGCAG | 9470 fluorescence intensity (a.u.)
ATATAGGGGTTGGTCTTCCACGTCAAATTTGGGGTAGATACGGAGTCACCTAGTGCAG | 10200 fluorescence intensity (a.u.)
TCTGCTCAGGTTGTTGTTTTCACCATTTTCCTTACTGTAGCGGAGTCACCTAGTGCAG | 12100 fluorescence intensity (a.u.)
TGAGTTTCTGTGTCCAACTTTAACTGTCCGTCTTATATGACGGAGTCACCTAGTGCAG | 8120 fluorescence intensity (a.u.)
ATCATGCGCTAATAGCTTCCTTGTTTTTGTGTGCCCACTTCGGAGTCACCTAGTGCAG | 15200 fluorescence intensity (a.u.)
CACTACTCCCATCACGGCACACTGATTCACAGCACACAGTCGGAGTCACCTAGTGCAG | 9540 fluorescence intensity (a.u.)

Sequence | binding signal
TCACCTGCCTCGCTCGCTTCGTCGCTTCCAGCTTCACGCACGGAGTCACCTAGTGCAG | 10200 fluorescence intensity (a.u.)
AACCTTTCATTATTTATGTCCATGTACTCCCTGTTGAATTCGGAGTCACCTAGTGCAG | 11600 fluorescence intensity (a.u.)
TATTTCCCCGGTGAAACGCACGCGATCCTGACAGTATATTCGGAGTCACCTAGTGCAG | 8370 fluorescence intensity (a.u.)
CTCGTTATATCTATTATAAATTTTTTAATATACATGTTATCGGAGTCACCTAGTGCAG | 9040 fluorescence intensity (a.u.)
CATTTTTTTTCATATGCCCTGTTGCTCACTATGTTTGTCACGGAGTCACCTAGTGCAG | 10300 fluorescence intensity (a.u.)
ATTGTCTATTGTTTATATGCTCATTTTACTACCAAATTTACGGAGTCACCTAGTGCAG | 8780 fluorescence intensity (a.u.)
ATCTGGTTTCTTAATGCTTGTATCCAATCTCAAAAGTTCTCGGAGTCACCTAGTGCAG | 8250 fluorescence intensity (a.u.)
TCTGTGGTGCCTTCTAATCCAATTTTCTGACTTTCTTGCTCGGAGTCACCTAGTGCAG | 12400 fluorescence intensity (a.u.)
TTCTACAGGAGTATCATCATCTTTGTGTTCTGGCTCCTGTCGGAGTCACCTAGTGCAG | 9040 fluorescence intensity (a.u.)
GAGGGGAAATGTCTTCAGGGGTTGGAAAGGAGGTTGTAGACGGAGTCACCTAGTGCAG | 11100 fluorescence intensity (a.u.)
CGCCCTGTATTGTTGGCGGGGTTCTCTCTGCATCTCTTCTCGGAGTCACCTAGTGCAG | 8340 fluorescence intensity (a.u.)
ACCAGGTTATGATCTACTTTTATTTTGTTTTCTAAATATTCGGAGTCACCTAGTGCAG | 8460 fluorescence intensity (a.u.)
GGCCAAAATGACAAAGTGGTGGTGAGTGCGTATTTCATATCGGAGTCACCTAGTGCAG | 9190 fluorescence intensity (a.u.)
TTCCCCGGCAGGAAATTCGATGTTTTCGTCTCTAGGTCCACGGAGTCACCTAGTGCAG | 9910 fluorescence intensity (a.u.)
TTCCTCATCCCACGGCGCCCATGCCCACCACCTGTTCGACCGGAGTCACCTAGTGCAG | 11100 fluorescence intensity (a.u.)
GGGGTAGAATCTCTCTCTCGGTGCCACAGCTTTAAAGTTACGGAGTCACCTAGTGCAG | 10700 fluorescence intensity (a.u.)
TGTCCATGGTACTGTGTTACTCTTTTACTCTTCAACCAAGCGGAGTCACCTAGTGCAG | 10100 fluorescence intensity (a.u.)
AGCGCACGGCGCCGCGCCGTCATCTCGTGCTTGTATCCTTCGGAGTCACCTAGTGCAG | 10300 fluorescence intensity (a.u.)
GCTGCCACCTGTCACCTCCTGTTAACGACCAAAATTGGTACGGAGTCACCTAGTGCAG | 8090 fluorescence intensity (a.u.)
CCCCGCTGTCTGAGGGACTGCCTCTTCGGTGGGCGGGGAACGGAGTCACCTAGTGCAG | 8160 fluorescence intensity (a.u.)
GCTATTATTCGTCTCGCTTCCCATATAACCACAGGTATAACGGAGTCACCTAGTGCAG | 8830 fluorescence intensity (a.u.)

A second format for some results above.
Sequence	binding signal
CGCCCTGTATTGTTGGCGGGGTTCTCTCTGCATCTCTTCTCGGAGTCACCTAGTGCAG	8340 fluorescence intensity (a.u.)
ACCAGGTTATGATCTACTTTTATTTTGTTTTCTAAATATTCGGAGTCACCTAGTGCAG	8460 fluorescence intensity (a.u.)
GGCCAAAATGACAAAGTGGTGGTGAGTGCGTATTTCATATCGGAGTCACCTAGTGCAG	9190 fluorescence intensity (a.u.)
TTCCCCGGCAGGAAATTCGATGTTTTCGTCTCTAGGTCCACGGAGTCACCTAGTGCAG	9910 fluorescence intensity (a.u.)
